The text below walks through data of paper PMC7819943, “Rice protein-binding microarrays: a tool to detect cis-acting elements near promoter regions in rice”.

Amino acid sequences for entries named in this document (tags omitted).
UniProt Q0JBA9, entry or part of it: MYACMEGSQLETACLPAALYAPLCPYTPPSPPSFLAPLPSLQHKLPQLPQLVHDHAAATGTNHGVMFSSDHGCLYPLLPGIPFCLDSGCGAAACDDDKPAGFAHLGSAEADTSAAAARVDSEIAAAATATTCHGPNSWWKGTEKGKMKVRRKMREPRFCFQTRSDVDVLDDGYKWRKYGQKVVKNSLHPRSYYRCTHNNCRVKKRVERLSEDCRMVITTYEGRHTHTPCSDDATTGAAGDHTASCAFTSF

The list shows a part of the results.

The target in this experiment is OsWRKY34 (Oryza sativa, UniProt Q0JBA9 1-250). Description: protein-binding microarray (RPBM); PBS, 2% BSA, 51.3 ng/ul salmon testes DNA, 50 uM zinc acetate, 200 nM TF, 25 C, 1 h; high values mean tight binding. The note with it: protein: recombinant; tags: N-terminal polyhistidine and DsRed monomer fusion (pET32a); label: CyDye5-dUTP incorporated in the synthesized complementary strand; 3' TTTTT single-stranded linker to array surface; dsDNA, one strand shown. In a few lines: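 A custom Agilent array was converted to double-stranded form by primer extension with Cy5-dUTP and blocked with 2% BSA. Protein at 200 nM in PBS with 2% BSA, salmon testes DNA and 50 µM zinc acetate was applied for 1 h at 25 °C, followed by washing. The proteins were polyhistidine–DsRed N-terminal fusions of transcription factors, expressed in E. coli BL21-CodonPlus and Ni–NTA-purified. The binding signal is per-feature fluorescence intensity (arbitrary units) from an Axon 4000B scanner.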
For “CTCGCGTGTCGTTCCCTATAGGAAAACCCTCTTTATCAATCGGAGTCACCTAGTGCAG”, the binding signal is 8570 fluorescence intensity (a.u.).

Take “TTTTTTTTTTTTGTTTTCCCCTTCCGGTCGTTGTGGCGAACGGAGTCACCTAGTGCAG”: the binding signal is 8870 fluorescence intensity (a.u.).

As to “TCAGATCTAGAAGCTCATCGTTGCTATTGTCCTGCTTCTCCGGAGTCACCTAGTGCAG”, the binding signal was 9670 fluorescence intensity (a.u.).

Consider “GCGCCCTTTTTTCCGTCTCATTTAACCCCACACCAACTGTCGGAGTCACCTAGTGCAG”, for which the binding signal was 9730 fluorescence intensity (a.u.).

On to “AGTCTGTAACCTTGTATGTTTGAACATGGTCAAACGATGACGGAGTCACCTAGTGCAG”, for which the binding signal is 12400 fluorescence intensity (a.u.).

Turning to “TCCCAATCCCTGATTCTACTCTCTTGATTGTATCCTTAGGCGGAGTCACCTAGTGCAG”, the binding signal was 8790 fluorescence intensity (a.u.).

With “ATCTTCTTTTTTTTTCCCGTTATCAGACTAGAGGCAAATACGGAGTCACCTAGTGCAG”, the binding signal was 10100 fluorescence intensity (a.u.).

For “TCTAGCCCTTGTATTCCTCCATCTTCCACCCCAAAACCTTCGGAGTCACCTAGTGCAG”, the binding signal is 9260 fluorescence intensity (a.u.).

Regarding “TTTTTCTTGCTGATCGAACATTCCCTTTTGTTTTCTATTACGGAGTCACCTAGTGCAG”, the binding signal was 11300 fluorescence intensity (a.u.).

Take “TCACCGACACTCCATCCTCTTCTTCACAGGCACTCAATGCCGGAGTCACCTAGTGCAG”: the binding signal was 9600 fluorescence intensity (a.u.).

For the sequence “TATGCTGAAATCTCTAATTCCGCTCTTTCAATCTGTTGCACGGAGTCACCTAGTGCAG”, the binding signal is 8140 fluorescence intensity (a.u.).

For “TAGGGTTTATGTGCGTGTGTTCATAGGGGTGAGTGCGCGTCGGAGTCACCTAGTGCAG”, the binding signal was 8950 fluorescence intensity (a.u.).

Regarding “ACCATATCCACTTGTTTTCCTCTCCTCTCTCTCTCTCTCTCGGAGTCACCTAGTGCAG”, the binding signal was 9370 fluorescence intensity (a.u.).

For the sequence “ATATATAACCTCGTATCTTCCGCGTTTTGTATTCTTCGTTCGGAGTCACCTAGTGCAG”, the binding signal is 11900 fluorescence intensity (a.u.).

Take “GTATTTTCCTCCTAGTTCGTCTTCACTTCCCGCCCGAGCGCGGAGTCACCTAGTGCAG”: the binding signal was 9830 fluorescence intensity (a.u.).

As for “AACGTTCGATGTGACAATAAAAAATTTTGGGTGGGATTTACGGAGTCACCTAGTGCAG”, the binding signal is 9640 fluorescence intensity (a.u.).

For “ACTCCATTGCCTATAAATCACACGTACTAACTGGCGGGGTCGGAGTCACCTAGTGCAG”, the binding signal is 9920 fluorescence intensity (a.u.).

“CATATGTCAACCACTGTTGTCGCGTCAGCAATATTGCATACGGAGTCACCTAGTGCAG”: the binding signal was 9880 fluorescence intensity (a.u.).

In the case of “AAGTGTACCCTTTTACTGTTCACCCGGAACCTTCCAGAGACGGAGTCACCTAGTGCAG”, the binding signal is 8270 fluorescence intensity (a.u.).

Regarding “ACACCGCCATATAGGCGCCACGTCAGCCAAAACCGCTTCCCGGAGTCACCTAGTGCAG”, the binding signal was 9540 fluorescence intensity (a.u.).

For the sequence “CTTTTTAAACTTCGTTAGCTAACGCCTGTCTAAATTGCACCGGAGTCACCTAGTGCAG”, the binding signal was 8110 fluorescence intensity (a.u.).

Consider “ACACTCTGCTGCATCTCTTATCCCTTCATCTCGGTCTTAACGGAGTCACCTAGTGCAG”, for which the binding signal was 16600 fluorescence intensity (a.u.).

As for “AAAATAGTCACCGACTCACGTATAAATACACCTCGCCCGCCGGAGTCACCTAGTGCAG”, the binding signal was 10500 fluorescence intensity (a.u.).

Consider “GGATTGATGGATGGATGTATGTTTTGTATGGTTCTCTGGACGGAGTCACCTAGTGCAG”, for which the binding signal is 8820 fluorescence intensity (a.u.).

As for “GATTCGCGTCCTCCGTTTGCTTCGCTTCTTCTTCTAGAACCGGAGTCACCTAGTGCAG”, the binding signal is 11500 fluorescence intensity (a.u.).

As to “AGGTCGCTCTGGCTGCTATTCGGGTTCTTCATGTGCTGACCGGAGTCACCTAGTGCAG”, the binding signal was 10300 fluorescence intensity (a.u.).

For “GGTGTGTTTTTTTTTAAAAAAATTTCTATGCGAAAGTTGTCGGAGTCACCTAGTGCAG”, the binding signal is 8900 fluorescence intensity (a.u.).

For the sequence “CTCCTCCTACCACCACTATTGCTGTTTACTATACGGGTTACGGAGTCACCTAGTGCAG”, the binding signal is 9340 fluorescence intensity (a.u.).

Consider “CAGCAGGGAGGTTTTTTATTGGTCGTAAGCAGAAGAAGCGCGGAGTCACCTAGTGCAG”, for which the binding signal was 8460 fluorescence intensity (a.u.).

For the sequence “TTTCGGCCCACATTCCTATCCGTTTTTGCTCGGGTGGGCTCGGAGTCACCTAGTGCAG”, the binding signal was 10900 fluorescence intensity (a.u.).

On to “CGACACGGTCTCCAAAACACAACTTTGACTTCTTAGTTTCCGGAGTCACCTAGTGCAG”, for which the binding signal was 8410 fluorescence intensity (a.u.).

Take “CTGAGTGGCTGGGTGGGGTAGTGAAAAAAATCATCGCGCGCGGAGTCACCTAGTGCAG”: the binding signal was 18200 fluorescence intensity (a.u.).

Turning to “AATTGTGCATTTTTATTTTGGGATGTTTATTATGTTATCTCGGAGTCACCTAGTGCAG”, the binding signal is 10300 fluorescence intensity (a.u.).

For “GACACGGAAAATCATGGTTTGACTTTTTTTTTTGGGACGGCGGAGTCACCTAGTGCAG”, the binding signal is 19400 fluorescence intensity (a.u.).

On to “CTTTTTTCTTGCTGATAAGTTCCACAGTTGATGTCACGTACGGAGTCACCTAGTGCAG”, for which the binding signal is 12200 fluorescence intensity (a.u.).

For the sequence “TCTTTTTAAAATCGCTCGTTAAGTTGGACTTTCTTTTCTTCGGAGTCACCTAGTGCAG”, the binding signal was 8480 fluorescence intensity (a.u.).

On to “GTGGTGTGCAAATGGAGGAGCTTTTTTTTGTGGAGGGAGACGGAGTCACCTAGTGCAG”, for which the binding signal was 8220 fluorescence intensity (a.u.).

With “CCCCAACTGTCTCGCTTGTCGTTAGTATCATCATATCATGCGGAGTCACCTAGTGCAG”, the binding signal was 9360 fluorescence intensity (a.u.).

As for “ATCACTCTACCTTCATCTTCCAAACTTCTTATTATGCTCTCGGAGTCACCTAGTGCAG”, the binding signal was 9000 fluorescence intensity (a.u.).

Turning to “AAATGCAGCCACCGCACCAGATCGAAATGGGGTTTTCTTTCGGAGTCACCTAGTGCAG”, the binding signal was 11200 fluorescence intensity (a.u.).

As for “GCCGACAACCATGTCCTCTTCTCGCTAAGCATGTCCTCCTCGGAGTCACCTAGTGCAG”, the binding signal was 8460 fluorescence intensity (a.u.).

As to “ACGTCGTTCTCGCCTCGCTACCGCCTCTCCGGGCCCATCTCGGAGTCACCTAGTGCAG”, the binding signal is 8480 fluorescence intensity (a.u.).

“CTGCATGTCTAGTTGTCTGTTGAATGATTCTGGCCAAGTACGGAGTCACCTAGTGCAG”: the binding signal is 8740 fluorescence intensity (a.u.).

Turning to “TCCGCCAAAACCCCAATCCAATCGGGCTCCGACTCCGACTCGGAGTCACCTAGTGCAG”, the binding signal is 8230 fluorescence intensity (a.u.).

“GTTTAATTTGTATTTTTTTCCATGGCAGTCACTTTCCCAGCGGAGTCACCTAGTGCAG”: the binding signal is 9910 fluorescence intensity (a.u.).

Turning to “CACCTCCCTTTTGTGATCTGCACATCCTACTCACAGTCGCCGGAGTCACCTAGTGCAG”, the binding signal is 8290 fluorescence intensity (a.u.).

Consider “ATTTTGTCACGGATTCGGCGCCTCCTCGCCTCGGCTGCATCGGAGTCACCTAGTGCAG”, for which the binding signal is 8850 fluorescence intensity (a.u.).

As to “GATAGGAGAGGGTAGGTAGAAAAACGGCTTCATTTTAAGACGGAGTCACCTAGTGCAG”, the binding signal is 8560 fluorescence intensity (a.u.).

On to “AAAATTTTTTTACTACTAGTGTTTTTATTGTTATTAGATTCGGAGTCACCTAGTGCAG”, for which the binding signal was 8230 fluorescence intensity (a.u.).

As for “CAGTTTCAATACTTCTGAAGATTTATGCAACTTTTCTTTCCGGAGTCACCTAGTGCAG”, the binding signal is 11400 fluorescence intensity (a.u.).

As for “CGTCTTCCTGTTGCCCTGTTGTTTGCTGCACCTCATGGCCCGGAGTCACCTAGTGCAG”, the binding signal is 11500 fluorescence intensity (a.u.).

In the case of “CTTTTTTTTTTGCAACTGTGAGTACTTACGTCAGATTTTCCGGAGTCACCTAGTGCAG”, the binding signal is 10700 fluorescence intensity (a.u.).

Regarding “CTCGCCTGACCCTGTCAAACGCCGGGCCGCGGACCCCGCCCGGAGTCACCTAGTGCAG”, the binding signal is 8970 fluorescence intensity (a.u.).

Turning to “ATTCCTGTGTTTTTCCTATCCTGTGTTTGAAAGGGGCCCTCGGAGTCACCTAGTGCAG”, the binding signal was 8670 fluorescence intensity (a.u.).
